Test results reported in the supplement of paper PMC6411743.
± gives the standard deviation of the averaged measurements. The list shows a part of the results.

Amino acid sequences for entries named in this document (tags omitted). A change or cut given only in a name is not applied to a line headed by its entry.
UniProt Q96J01: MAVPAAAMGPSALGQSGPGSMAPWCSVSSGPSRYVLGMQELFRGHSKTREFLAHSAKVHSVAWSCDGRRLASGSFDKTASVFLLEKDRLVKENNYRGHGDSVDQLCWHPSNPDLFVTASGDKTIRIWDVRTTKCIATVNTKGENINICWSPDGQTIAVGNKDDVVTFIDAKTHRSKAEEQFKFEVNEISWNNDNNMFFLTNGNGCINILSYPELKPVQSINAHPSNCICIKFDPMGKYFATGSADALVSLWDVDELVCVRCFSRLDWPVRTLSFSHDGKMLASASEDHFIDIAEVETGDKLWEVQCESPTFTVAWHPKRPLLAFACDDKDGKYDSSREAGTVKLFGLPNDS
UniProt Q8WUM4: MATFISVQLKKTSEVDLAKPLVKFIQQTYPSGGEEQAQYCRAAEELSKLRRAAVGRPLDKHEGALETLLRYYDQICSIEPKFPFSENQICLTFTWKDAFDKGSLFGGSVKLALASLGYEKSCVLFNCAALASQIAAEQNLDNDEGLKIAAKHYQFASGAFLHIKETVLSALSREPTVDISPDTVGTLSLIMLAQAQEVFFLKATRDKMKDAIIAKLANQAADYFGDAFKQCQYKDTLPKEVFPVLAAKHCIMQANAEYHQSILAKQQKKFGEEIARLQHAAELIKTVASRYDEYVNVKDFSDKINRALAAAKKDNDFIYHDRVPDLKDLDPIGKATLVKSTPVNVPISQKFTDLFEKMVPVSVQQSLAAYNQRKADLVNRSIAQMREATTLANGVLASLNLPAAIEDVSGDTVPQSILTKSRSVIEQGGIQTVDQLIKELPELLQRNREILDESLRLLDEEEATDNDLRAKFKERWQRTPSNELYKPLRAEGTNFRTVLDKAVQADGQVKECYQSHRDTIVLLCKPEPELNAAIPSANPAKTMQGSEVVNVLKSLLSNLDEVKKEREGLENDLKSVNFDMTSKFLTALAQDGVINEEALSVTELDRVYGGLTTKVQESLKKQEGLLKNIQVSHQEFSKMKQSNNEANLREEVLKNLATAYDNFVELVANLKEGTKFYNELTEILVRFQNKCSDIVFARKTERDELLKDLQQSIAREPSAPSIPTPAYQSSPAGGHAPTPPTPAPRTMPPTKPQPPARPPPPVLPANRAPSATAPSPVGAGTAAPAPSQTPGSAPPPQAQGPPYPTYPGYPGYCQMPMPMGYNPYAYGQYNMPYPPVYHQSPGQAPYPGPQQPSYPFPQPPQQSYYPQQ
UniProt Q92688: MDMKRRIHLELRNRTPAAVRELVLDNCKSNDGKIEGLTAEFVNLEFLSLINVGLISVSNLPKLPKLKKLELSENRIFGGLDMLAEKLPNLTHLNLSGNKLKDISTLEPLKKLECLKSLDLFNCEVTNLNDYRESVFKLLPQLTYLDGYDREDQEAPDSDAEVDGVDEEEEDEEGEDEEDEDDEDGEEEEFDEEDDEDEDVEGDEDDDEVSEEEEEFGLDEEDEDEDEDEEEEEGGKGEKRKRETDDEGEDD
UniProt Q92859: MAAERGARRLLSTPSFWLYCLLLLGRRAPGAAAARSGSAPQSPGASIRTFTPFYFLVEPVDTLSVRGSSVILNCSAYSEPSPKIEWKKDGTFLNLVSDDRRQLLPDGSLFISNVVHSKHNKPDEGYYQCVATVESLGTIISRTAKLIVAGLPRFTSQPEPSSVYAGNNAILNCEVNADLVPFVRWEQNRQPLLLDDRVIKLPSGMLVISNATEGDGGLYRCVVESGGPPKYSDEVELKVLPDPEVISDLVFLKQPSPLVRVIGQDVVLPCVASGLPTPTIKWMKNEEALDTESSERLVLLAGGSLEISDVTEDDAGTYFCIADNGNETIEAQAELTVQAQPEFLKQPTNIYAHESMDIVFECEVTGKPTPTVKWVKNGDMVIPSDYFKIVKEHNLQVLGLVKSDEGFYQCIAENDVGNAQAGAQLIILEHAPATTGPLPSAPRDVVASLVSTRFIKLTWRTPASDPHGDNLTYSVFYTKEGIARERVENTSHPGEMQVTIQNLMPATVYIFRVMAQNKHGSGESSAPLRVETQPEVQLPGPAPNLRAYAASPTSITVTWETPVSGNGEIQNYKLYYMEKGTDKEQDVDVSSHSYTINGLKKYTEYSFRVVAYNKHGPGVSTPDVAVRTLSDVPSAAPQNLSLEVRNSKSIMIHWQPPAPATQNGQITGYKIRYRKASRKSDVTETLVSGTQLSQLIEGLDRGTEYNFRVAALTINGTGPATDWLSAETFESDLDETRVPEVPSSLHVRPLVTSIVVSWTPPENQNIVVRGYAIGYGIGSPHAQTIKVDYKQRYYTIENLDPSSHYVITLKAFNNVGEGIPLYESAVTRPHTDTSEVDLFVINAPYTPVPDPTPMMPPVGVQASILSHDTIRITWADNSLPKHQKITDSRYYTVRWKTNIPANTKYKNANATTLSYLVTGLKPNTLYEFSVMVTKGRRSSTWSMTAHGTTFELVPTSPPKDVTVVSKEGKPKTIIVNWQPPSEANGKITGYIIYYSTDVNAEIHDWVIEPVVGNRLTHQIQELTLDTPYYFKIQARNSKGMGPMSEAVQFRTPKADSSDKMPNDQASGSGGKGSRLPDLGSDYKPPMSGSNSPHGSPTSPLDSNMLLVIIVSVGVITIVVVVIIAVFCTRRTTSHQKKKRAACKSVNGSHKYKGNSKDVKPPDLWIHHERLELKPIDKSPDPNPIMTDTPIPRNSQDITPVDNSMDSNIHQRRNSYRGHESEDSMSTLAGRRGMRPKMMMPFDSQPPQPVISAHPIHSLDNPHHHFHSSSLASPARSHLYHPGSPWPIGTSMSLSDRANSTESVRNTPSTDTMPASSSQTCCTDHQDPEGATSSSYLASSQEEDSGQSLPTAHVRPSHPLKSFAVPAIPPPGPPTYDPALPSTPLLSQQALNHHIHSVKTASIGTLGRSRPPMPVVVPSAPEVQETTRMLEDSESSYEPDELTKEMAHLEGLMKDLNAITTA
UniProt Q92820: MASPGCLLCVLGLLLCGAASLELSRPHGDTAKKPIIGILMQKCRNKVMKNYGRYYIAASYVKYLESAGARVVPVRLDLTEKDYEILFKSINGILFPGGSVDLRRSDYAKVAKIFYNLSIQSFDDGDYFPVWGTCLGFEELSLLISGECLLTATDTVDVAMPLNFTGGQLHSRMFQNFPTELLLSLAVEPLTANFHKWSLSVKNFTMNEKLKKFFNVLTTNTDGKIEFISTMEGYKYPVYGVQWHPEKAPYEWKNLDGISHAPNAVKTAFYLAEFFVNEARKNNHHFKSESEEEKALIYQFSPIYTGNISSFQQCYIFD

Compound: Nc1nc2c(ncn2[C@@H]2O[C@H](COP(=O)(O)OP(=O)(O)OP(=O)(O)O)[C@@H](O)[C@H]2O)c(=O)[nH]1 [guanosine triphosphate]
Test: NP40-soluble protein abundance relative to vehicle (solubility fold change) (ratio); higher = more soluble protein in presence of GTP
Experimental: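 Solubility proteome profiling in Jurkat crude lysate. Lysate was treated with Mg-GTP (0.1-10 mM) for 10 min at room temperature and 3 min at 37 °C, then solubilised with 0.8% NP40 and benzonase, followed by ultracentrifugation. Proteins were quantified by TMT10 LC-MS/MS; the value is the NP40-soluble abundance relative to the NP40-processed vehicle, from 3 independent experiments.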

Row | Target | NP40-soluble protein abundance (concentration: 0.1mM) | NP40-soluble protein abundance (concentration: 0.5mM) | NP40-soluble protein abundance (concentration: 1mM) | NP40-soluble protein abundance (concentration: 2mM) | NP40-soluble protein abundance (concentration: 4mM) | NP40-soluble protein abundance (concentration: 6mM) | NP40-soluble protein abundance (concentration: 8mM) | NP40-soluble protein abundance (concentration: 10mM)
1 | THOC3 (UniProt Q96J01) | 1.06 ± 0.058 | 1.12 ± 0.091 | 1.09 ± 0.1 | 1.2 ± 0.16 | 1.31 ± 0.14 | 1.38 ± 0.14 | 1.35 ± 0.1 | 1.31 ± 0.13
2 | PDCD6IP (UniProt Q8WUM4) | 0.945 ± 0.046 | 0.957 ± 0.053 | 0.943 ± 0.061 | 0.889 ± 0.075 | 0.873 ± 0.084 | 0.895 ± 0.064 | 0.904 ± 0.053 | 0.883 ± 0.07
3 | UniProt Q92688 and related entries | 0.862 ± 0.035 | 0.816 ± 0.078 | 0.95 ± 0.052 | 0.857 ± 0.071 | 0.899 ± 0.08 | 0.881 ± 0.059 | 0.91 ± 0.09 | 0.916 ± 0.039
4 | UniProt Q92859 and related entries | 1.02 ± 0.037 | 0.905 ± 0.029 | 1.01 ± 0.022 | 0.969 ± 0.052 | 0.981 ± 0.074 | 0.942 ± 0.13 | 0.957 ± 0.053 | 0.943 ± 0.061
5 | GGH (UniProt Q92820) | 0.965 ± 0.053 | 0.933 ± 0.041 | 0.932 ± 0.065 | 0.895 ± 0.061 | 0.9 ± 0.097 | 0.909 ± 0.082 | 0.873 ± 0.078 | 0.871 ± 0.069
